Patent US20110217715A1, “GENE EXPRESSION IN DUCHENNE MUSCULAR DYSTROPHY” (CHILDREN'S HOSPITAL MEDICAL CENTER, priority 2008, published 2011)
Further values from the same series stand in other lists.

Tested on: mRNA expression in peripheral blood of individuals with DMD
Experiment: Whole-blood gene expression microarray: DMD administered deflazacort vs DMD administered prednisone
Format: in vivo, human
Description: Fifteen ml of blood was collected from each individual into 6 PAXgene® Vacutainer® tubes (PreAnalytiX, Germany) by antecubital fossa venipuncture. PAXgene® tubes contain a proprietary reagent that immediately stabilizes RNA, thus reducing RNA degradation and minimizing gene expression changes following phlebotomy. The tubes were then inverted 20 times, then remained undisturbed for 2 h at room temperature (about 19° C. to about 22° C.), and then stored at -70° C. until processed. Total RNA was isolated using the Paxgene® blood RNA kit (PreAnalytiX, Germany) according to the manufacturers instructions. The RNA isolated is from all cells in whole blood. Typical yields of total RNA isolated from about 7.5 ml of human whole blood were between 10 μg RNA and 40 μg RNA. RNA quality and purity was analyzed by spectrophotometry using the Nanodrop ND-1000, and RNA integrity was analyzed using the Agilent 2100 Bioanalyzer. […] Sample labeling, hybridization to chips, and image scanning were performed using standard Affymetrix protocols. For each whole blood sample from control individuals and individuals with DMD, total RNA was labeled using the One-Cycle Target Labeling protocol and hybridized to the arrays. […] Double-stranded cDNA synthesis, biotin-labeled cRNA synthesis, and cRNA fragmentation were performed according to the Affymetrix GeneChip Eukaryotic Expression Analysis protocol. The labeled, fragmented cRNA (15 μg) was hybridized at 45° C. overnight. After hybridization, the array was washed and stained. The arrays were scanned with an argon-ion laser at λ=570 nm, with a resolution of 3 μm/pixel (Affymetrix, Inc.). After scanning the array, the raw probe level values for each probe were saved in Affymetrix.cel files. […] Statistical analyses, including t-test analyses, unsupervised hierarchical clustering, and principal component analyses were conducted using Genespring 7.2 software ([…]® 7, Silicon Genetics, Redwood City Calif.). […] Corrections for multiple comparisons used a Benjamini-Hochberg False Discovery Rate (FDR) of 0.05, disclosed in Tang et al., J Cereb Blood Flow Metab 26 (2006) 1089, which is expressly incorporated by reference herein in its entirety. […] Sample processing and array hybridization, probe-level data analysis, and statistical analysis were identical to Example 1.

## CC(=O)OCC(=O)[C@@]12N=C(C)O[C@@H]1C[C@H]1[C@@H]3CCC4=CC(=O)C=C[C@]4(C)[C@H]3[C@@H](O)C[C@@]12C [deflazacort]
AA207241, nucleic acid 2304, vs. prednisone
  p-value: 0.0344
AA806989, nucleic acid 2287, vs. prednisone
  p-value: 0.017
AA838727, nucleic acid 2282, vs. prednisone
  p-value: 0.0115
AF086554, nucleic acid 2328, vs. prednisone
  p-value: 0.043
AF116653, nucleic acid 2303, vs. prednisone
  p-value: 0.0338
AI090764, nucleic acid 2280, vs. prednisone
  p-value: 0.00719
AI302271, nucleic acid 2295, vs. prednisone
  p-value: 0.0243
AI350995, nucleic acid 2277, vs. prednisone
  p-value: 0.00433
AI371550, nucleic acid 2301, vs. prednisone
  p-value: 0.0334
AI718964, nucleic acid 2292, vs. prednisone
  p-value: 0.0211
AI800713, nucleic acid 2297, vs. prednisone
  p-value: 0.0299
AI916948, nucleic acid 1660, vs. prednisone
  p-value: 0.0303
AI985021, nucleic acid 1350, vs. prednisone
  p-value: 0.0424
AK026267, nucleic acid 2288, vs. prednisone
  p-value: 0.0176
AK026679, nucleic acid 2331, vs. prednisone
  p-value: 0.044
AK057701, nucleic acid 2296, vs. prednisone
  p-value: 0.0246
AL117451, nucleic acid 2335, vs. prednisone
  p-value: 0.0472
AL119001, nucleic acid 2278, vs. prednisone
  p-value: 0.00572
AU120130, nucleic acid 2334, vs. prednisone
  p-value: 0.047
AW130600, nucleic acid 2276, vs. prednisone
  p-value: 0.00258
AW293956, nucleic acid 2300, vs. prednisone
  p-value: 0.0326
AW340891, nucleic acid 729, vs. prednisone
  p-value: 0.0312
AW451107, nucleic acid 2283, vs. prednisone
  p-value: 0.0133
AW954199, nucleic acid 2333, vs. prednisone
  p-value: 0.0452
BC008462, nucleic acid 2294, vs. prednisone
  p-value: 0.0226
BC016013, nucleic acid 2279, vs. prednisone
  p-value: 0.00609
BC035170, nucleic acid 2290, vs. prednisone
  p-value: 0.0206
BC035958, nucleic acid 2305, vs. prednisone
  p-value: 0.0353
BC040914, nucleic acid 2289, vs. prednisone
  p-value: 0.0182
BE739287, nucleic acid 2286, vs. prednisone
  p-value: 0.017
BF055351, nucleic acid 334, vs. prednisone
  p-value: 0.00555
BF438386, nucleic acid 2291, vs. prednisone
  p-value: 0.0209
BF514098, nucleic acid 2330, vs. prednisone
  p-value: 0.0439
BG288330, nucleic acid 2299, vs. prednisone
  p-value: 0.0309
BG389789, nucleic acid 2302, vs. prednisone
  p-value: 0.0336
BGR, AW341515, nucleic acid 2310, vs. prednisone
  p-value: 0.00516
BM728567, nucleic acid 2293, vs. prednisone
  p-value: 0.0214
C1orf128, AF271784, nucleic acid 2311, vs. prednisone
  p-value: 0.031
CA444630, nucleic acid 1377, vs. prednisone
  p-value: 0.0205
CDC27, AA166684, nucleic acid 2312, vs. prednisone
  p-value: 0.0359
CDNA FLJ12367 fis, clone MAMMA1002413, Genbank AL119001, Nucleic Acid No. 2278
  p-value: 0.00572
CDNA FLJ14081 fis, clone HEMBB1002280, Genbank BM728567, Nucleic Acid No. 2293
  p-value: 0.0214
CDNA FLJ33139 fis, clone UTERU1000109, Genbank AK057701, Nucleic Acid No. 2296
  p-value: 0.0246
CDNA FLJ39805 fis, clone SPLEN2007951, Genbank CA444630, Nucleic Acid No. 1377
  p-value: 0.0205
CDNA FLJ41375 fis, clone BRCAN2007700, Genbank BE739287, Nucleic Acid No. 2286
  p-value: 0.017
CDNA FLJ43285 fis, clone MESAN2000067, Genbank AI302271, Nucleic Acid No. 2295
  p-value: 0.0243
CDNA FLJ43311 fis, clone NT2RI2009855, Genbank AI985021, Nucleic Acid No. 1350
  p-value: 0.0424
CDNA FLJ46440 fis, clone THYMU3016022, Genbank BG288330, Nucleic Acid No. 2299
  p-value: 0.0309
CDNA clone IMAGE: 4769453, Genbank AA806989, Nucleic Acid No. 2287
  p-value: 0.017
CDNA clone IMAGE: 4769453, Genbank AI350995, Nucleic Acid No. 2277
  p-value: 0.00433
CDNA clone IMAGE: 6254031, Genbank AI800713, Nucleic Acid No. 2297
  p-value: 0.0299
Clone 25194 mRNA sequence, Genbank BF438386, Nucleic Acid No. 2291
  p-value: 0.0209
FGFR1OP2, W74643, nucleic acid 1750, vs. prednisone
  p-value: 0.0301
FLJ37562, BF436799, nucleic acid 2313, vs. prednisone
  p-value: 0.0328
Full length insert cDNA YR33G07, Genbank AW340891, Nucleic Acid No. 729
  p-value: 0.0312
Full length insert cDNA YR33G07, Genbank H48516, Nucleic Acid No. 2285
  p-value: 0.0165
Genbank AA207241, Nucleic Acid No. 2304
  p-value: 0.0344
Genbank AF116653, Nucleic Acid No. 2303
  p-value: 0.0338
Genbank AI371550, Nucleic Acid No. 2301
  p-value: 0.0334
Genbank AK026267, Nucleic Acid No. 2288
  p-value: 0.0176
Genbank AL117451, Nucleic Acid No. 2335
  p-value: 0.0472
Genbank AU120130, Nucleic Acid No. 2334
  p-value: 0.047
Genbank BC035170, Nucleic Acid No. 2290
  p-value: 0.0206
Genbank BC035958, Nucleic Acid No. 2305
  p-value: 0.0353
Genbank BF055351, Nucleic Acid No. 334
  p-value: 0.00555
Genbank BG389789, Nucleic Acid No. 2302
  p-value: 0.0336
Genbank H43637, Nucleic Acid No. 2306
  p-value: 0.04
Genbank N35922, Nucleic Acid No. 2298
  p-value: 0.0304
Genbank NM_173704, Nucleic Acid No. 2284
  p-value: 0.0147
Genbank U20489, Nucleic Acid No. 2281
  p-value: 0.0108
H43637, nucleic acid 2306, vs. prednisone
  p-value: 0.04
H48516, nucleic acid 2285, vs. prednisone
  p-value: 0.0165
H94876, nucleic acid 2329, vs. prednisone
  p-value: 0.0435
HBLD2, NM_030940, nucleic acid 2314, vs. prednisone
  p-value: 0.0311
Homo sapiens, clone IMAGE: 4272847, mRNA, Genbank BC008462, Nucleic Acid No. 2294
  p-value: 0.0226
Homo sapiens, clone IMAGE: 4695648, mRNA, Genbank BC016013, Nucleic Acid No. 2279
  p-value: 0.00609
Homo sapiens, clone IMAGE: 5745627, mRNA, Genbank BC040914, Nucleic Acid No. 2289
  p-value: 0.0182
Hypothetical gene supported by AK024248, AL137733, Genbank AF086554, Nucleic Acid No. 2328
  p-value: 0.043
KLF9, NM_001206, nucleic acid 2315, vs. prednisone
  p-value: 0.0319
LOC51326, AF119889, nucleic acid 2316, vs. prednisone
  p-value: 0.0429
MLC1SA, NM_002475, nucleic acid 2317, vs. prednisone
  p-value: 0.0202
MRNA, cDNA DKFZp564O0862, Genbank AW130600, Nucleic Acid No. 2276
  p-value: 0.00258
MTF1, NM_005955, nucleic acid 2130, vs. prednisone
  p-value: 5.84E−05
MTP18, AF060924, nucleic acid 2318, vs. prednisone
  p-value: 0.0129
MYADM, BE908995, nucleic acid 2132, vs. prednisone
  p-value: 0.0206
MYLIP, AW292746, nucleic acid 2133, vs. prednisone
  p-value: 0.00321
MYO1F, BF740152, nucleic acid 2134, vs. prednisone
  p-value: 0.0266
N4BP1, AB014515, nucleic acid 2135, vs. prednisone
  p-value: 0.0291
N35922, nucleic acid 2298, vs. prednisone
  p-value: 0.0304
NCF2, BC001606, nucleic acid 2136, vs. prednisone
  p-value: 0.0348
NCOA1, BF576458, nucleic acid 2137, vs. prednisone
  p-value: 0.00399
NCOA6, AF128458, nucleic acid 926, vs. prednisone
  p-value: 0.0221
